Data source: PubChem BioAssay AID1259425 (University of Nebraska Medical Center, 2018)

- Test: 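Compare each knockdown with KSR1 silencing using changes in marker transcripts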 (primary screen)
- System: HCT116 human colon cancer cells
- Reagent: siRNA pool against human genes, 50 nM siRNA
- Read-out: 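mRNA of six signature genes measured together by branched-DNA assay after 50 nM siRNA pool, blank removed, divided by geometric mean of two housekeeping genes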
- Direction: BNIP3L mRNA: higher = more BNIP3L transcript after knockdown; NDRG1 mRNA: higher = more NDRG1 transcript after knockdown
This is a random part of about 14,000 reagents tested. Further read-outs or replicates are left out here. No sequences are given here. Not stated in the record: the time to read-out.

gene knocked down | BNIP3L mRNA, set 1 | NDRG1 mRNA, set 1
NQO2 (GeneID 4835) | 0.0826 | 0.0607
TMED7 (GeneID 51014) | 0.134 | 0.262
QTRT2 (GeneID 79691) | 0.0789 | 0.102
VSIG10 (GeneID 54621) | 0.093 | 0.121
MSH6 (GeneID 2956) | 0.159 | 0.0982
ZNF22 (GeneID 7570) | 0.089 | 0.178
PSMA5 (GeneID 5686) | 0.545 | 1.55
MGST1 (GeneID 4257) | 0.115 | 0.168
SLC6A12 (GeneID 6539) | 0.165 | 0.0759
HIP1R (GeneID 9026) | 0.157 | 0.162
ZNF557 (GeneID 79230) | 0.182 | 0.128
LAMA5 (GeneID 3911) | 0.0688 | 0.0986
ADH7 (GeneID 131) | 0.163 | 0.445
PIP4P2 (GeneID 55529) | 0.0616 | 0.204
SLC27A3 (GeneID 11000) | 0.146 | 0.154
SLC25A20 (GeneID 788) | 0.164 | 0.202
SYT15 (GeneID 83849) | 0.431 | 0.338
DSCR4 (GeneID 10281) | 0.121 | 0.237
GPD2 (GeneID 2820) | 0.0937 | 0.124
CHMP5 (GeneID 51510) | 0.107 | 0.39

Reprinted from above, 3 entries:
gene knocked down | BNIP3L mRNA, set 1 | NDRG1 mRNA, set 1
QTRT2 (GeneID 79691) | 0.0789 | 0.102
VSIG10 (GeneID 54621) | 0.093 | 0.121
MSH6 (GeneID 2956) | 0.159 | 0.0982
